# According to the supplement of paper PMC3334620:
# Over roughly 33,000 sequences, “E-score (-0.5 to 0.5)” has its median near -0.016; the highest 2% begin near 0.3. This is one part of the list.
# Molecular target: T1, Yer184c (UniProt P39961)
# T1 sequence: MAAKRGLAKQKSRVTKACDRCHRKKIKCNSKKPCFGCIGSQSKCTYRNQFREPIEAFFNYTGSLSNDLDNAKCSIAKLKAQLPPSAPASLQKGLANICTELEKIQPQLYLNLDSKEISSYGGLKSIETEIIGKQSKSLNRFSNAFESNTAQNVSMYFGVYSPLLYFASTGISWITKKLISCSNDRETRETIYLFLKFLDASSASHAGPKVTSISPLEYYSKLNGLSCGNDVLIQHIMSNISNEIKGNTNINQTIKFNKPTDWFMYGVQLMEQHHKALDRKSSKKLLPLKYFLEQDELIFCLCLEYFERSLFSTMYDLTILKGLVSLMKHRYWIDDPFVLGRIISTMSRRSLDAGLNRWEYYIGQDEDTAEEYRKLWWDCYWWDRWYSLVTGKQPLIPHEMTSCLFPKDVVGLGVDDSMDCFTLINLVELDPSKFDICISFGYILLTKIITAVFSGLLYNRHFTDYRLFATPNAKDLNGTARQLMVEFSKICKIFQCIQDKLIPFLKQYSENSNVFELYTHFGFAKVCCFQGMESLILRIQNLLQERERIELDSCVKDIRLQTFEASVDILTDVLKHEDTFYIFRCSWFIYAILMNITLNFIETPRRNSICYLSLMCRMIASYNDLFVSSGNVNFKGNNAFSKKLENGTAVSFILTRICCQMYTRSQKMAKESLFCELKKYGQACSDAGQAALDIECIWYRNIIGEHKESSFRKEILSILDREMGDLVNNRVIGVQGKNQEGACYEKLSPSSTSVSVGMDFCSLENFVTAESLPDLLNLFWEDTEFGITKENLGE
# Assay: PBM E-score (8-mer binding enrichment) (E-score (-0.5 to 0.5)); higher = stronger / more preferred TF binding
# Conditions: protein concentration: 100 nM; construct: GST-full length
# How it was run: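 Bound GST-tagged yeast transcription factors, applied at about 100-200 nM to double-stranded universal all-10-mer Agilent arrays, were detected with fluorescent anti-GST. Scans were normalised with masliner. A modified Wilcoxon-Mann-Whitney statistic, the E-score, was assigned to each ungapped eight-base word pooled with its reverse complement by the Universal PBM Analysis Suite.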
row,Sequence,PBM E-score
1,GGGTTCCA,-0.208
2,ACTGCAGG,-0.24
3,GAGCCCTC,-0.222
4,GTGCTATA,0.0179
5,CTTCAAGC,-0.177
6,CAGAGTTA,-0.00643
7,CGACCGTA,-0.212
8,ACGATTGA,0.0125
9,CCACCCGA,0.0396
10,ATAGGAAC,-0.0252
11,CCGGCCCG,0.386
12,GGTATACA,0.0522
13,AAACAGAG,-0.0111
14,ATACCTTG,-0.00484
15,AGGCATAT,0.0107
16,CGACCTTA,-0.125
17,AAGTTCTA,-0.0763
18,AATAGGTA,-0.15
19,AAAACCAT,0.0993
20,AGATGTGC,-0.165
21,TTATTGAA,0.054
22,CGGTGGCA,-0.188
23,TAACGAGA,0.0041
24,GCACCACA,-0.0667
25,AGCACCAG,-0.196

row,Sequence,PBM E-score
1,CCGCCTCC,-0.209
2,CCCATGGA,-0.216
3,CATTGAAA,0.252
4,GCCGCTAA,0.128
5,AGCTGTAC,-0.0647
6,ATTCATGG,-0.0258
7,ACCTGCAA,-0.104
8,CAATTCTA,-0.041
9,CGCCAAGA,-0.232
10,ATACATGA,0.0451
11,ACCTAGGA,-0.0362
12,GCCGGCAA,0.424
13,AAAGGGAG,-0.313
14,CTATTGTA,0.186
15,CGCTTGTA,0.0325
16,GAGTCACC,-0.143
17,ACGCCAGG,-0.115
18,AACTTACT,-0.16
19,GGAATGCC,-0.0172
20,TCATCTCA,-0.00118
21,CAGCTAAC,-0.245
22,CCGATGTC,0.0654
23,ACACTGGG,-0.275
24,ATATCTTA,0.187
25,GGATGAAA,0.176

row,Sequence,PBM E-score
1,CATGGAAC,-0.137
2,CTTCTAGC,-0.166
3,CCACTGCC,-0.0541
4,CTCAAGAA,-0.149
5,ACAAAAAT,0.237
6,AACACCAT,0.0165
7,AGAAGTGA,-0.101
8,ATCTTAGC,-0.0214
9,ATAACGCG,-0.0632
10,AACGCAAA,0.0887
11,GCATTAAA,0.149
12,CGGCGTAC,0.164
13,AGATGGCC,-0.153
14,GATAGCGC,-0.051
15,ACTACTCG,0.151
16,CCGAAGGC,0.147
17,CATAGTCC,-0.153
18,AGAACCAT,0.0819
19,GATCTGCA,-0.0753
20,TAATTTAA,0.289
21,ACGCAAGC,-0.0529
22,TCTTCTAA,0.129
23,ATGATCAC,-0.0394
24,AACATATT,0.176
25,GGTCATTA,-0.0833

row,Sequence,PBM E-score
1,ACGCCGCT,0.0292
2,CACCGTGA,-0.0116
3,AAACCTAC,-0.106
4,ACCCGCAG,0.0868
5,AAGCCGCC,-0.112
6,ACTAAGGG,-0.118
7,AGAGTACC,-0.108
8,AATACCTC,0.0393
9,CTTCTCTA,-0.178
10,AGCAGTTA,-0.0175
11,ATTTAGGG,0.0535
12,AGGATACT,-0.0918
13,ACGCATTA,0.0568
14,ACCAGCAT,-0.234
15,AGAATAGA,0.095
16,ACGGAAGT,0.222
17,CGGATGTC,0.279
18,CCGTCACC,-0.158
19,ACATCAGG,-0.0431
20,AGAGGGCT,-0.338
21,AACGTTCT,0.0589
22,ATGCCATA,-0.203
23,AAAAAAGC,0.00493
24,CACTATCC,-0.106
25,CCGATGGC,0.0356

row,Sequence,PBM E-score
1,GATCGGCA,0.231
2,TCGACAGA,-0.147
3,CAATTCTG,-0.119
4,TGCTAAAA,0.0497
5,CGCGACCC,-0.103
6,GCTGAATA,0.022
7,AATGGTCA,0.00218
8,ATTGTTTG,0.137
9,TCAGTTCA,-0.123
10,GTGTGAAC,0.0687
11,AACCCTGT,-0.0852
12,AAGGTAAC,0.0582
13,ACTTGCAA,0.163
14,ATGGGCAA,-0.119
15,TGGGCACA,-0.107
16,GATTGCTA,-0.0892
17,AGCCCTTG,-0.218
18,TAGATCGA,-0.0162
19,GGGAGAAC,-0.108
20,ACGGATTC,0.197
21,TATGCGGA,0.121
22,CGCACGCA,0.00217
23,CAGGGACA,-0.0413
24,GTATTTCA,0.111
25,AGCTCGGA,0.159

# Already shown: entries from further up.
row,Sequence,PBM E-score
6,GCTGAATA,0.022
7,AATGGTCA,0.00218

# Additional results follow:

row,Sequence,PBM E-score
1,GCTGGCCA,-0.228
2,CCTACTTA,-0.184
3,ACAGACAA,0.3
4,AGACGGGC,0.0291
5,AAGTCTCT,-0.246
6,ATCTACAG,0.078
7,CAATGTGA,0.00375
8,GAGCTCAC,-0.108
9,AAATATCG,0.194
10,CGCTGGGA,-0.0711
11,ACCAAGGT,-0.104
12,TCTGTAAA,0.0225
13,ACCATCCT,-0.21
14,CACCCCAC,-0.236
15,AGTGTTGG,-0.0565
16,CGTTGTTA,0.167
17,GAGGCGCC,-0.0777
18,CGAGTACG,0.0148
19,CAACTACG,-0.118
20,TAGGAAGA,-0.146
21,CGTGACGC,-0.0217
22,CAAACCCC,-0.258
23,AATCAGCT,0.0317
24,AACAGCGT,-0.0227
25,GTCTCCTA,-0.276

# A second format for some results above.
row | Sequence | PBM E-score
7 | CAATGTGA | 0.00375
11 | ACCAAGGT | -0.104
15 | AGTGTTGG | -0.0565

# Given with tabs: entries from further up
row	Sequence	PBM E-score
6	ATCTACAG	0.078
7	CAATGTGA	0.00375
8	GAGCTCAC	-0.108
9	AAATATCG	0.194

# Continued:

row,Sequence,PBM E-score
1,CTGAGGCC,0.105
2,TGCTAGAA,0.035
3,GAATAAGC,-0.0933
4,ACAAAGAA,0.233
5,ATTAACTG,0.0978
6,GATCGGAA,0.279
7,GATAATGC,-0.0544
8,AGGCACAG,-0.163
9,ATCGGTAA,0.264
10,AGCCTTGA,-0.064
11,CACGGGCG,0.0256
12,CTAGGGTC,-0.286
13,CAGACACA,0.0397
14,AGTTGCTA,0.13
15,CGAATAAA,0.19
16,CGAGGCAA,0.2
17,TCACTCGA,0.0168
18,GCACACGA,0.00812
19,CGAGGGCA,-0.0888
20,ATCGCTAA,0.0871
21,ACTTACCG,0.291
22,CACCTGTA,-0.112
23,GGAGGCAC,-0.0737
24,ATACAAAG,0.255
25,ACACAACG,0.0548

row,Sequence,PBM E-score
1,AACTCGCC,0.00678
2,ACTAGACC,0.068
3,ATCGGTGC,0.0934
4,AATCATTC,0.185
5,GTGGGTCA,-0.249
6,AAGGCAGT,-0.0915
7,AAGGCATA,-0.0013
8,AAGCCGTA,0.224
9,GAATAGAA,0.174
10,AGACCGAA,0.305
11,CTGCTAAG,-0.162
12,ACGCATGG,-0.182
13,GATATCGC,0.0705
14,ACGTACGG,0.0226
15,CCTCAGGA,-0.207
16,GCTCGCAA,-0.0232
17,AAAACCCA,0.00491
18,ACTGGGTG,-0.256
19,CCTTCTGA,-0.175
20,ATCTAGAA,0.154
21,ACTCTTTC,-0.0892
22,ACTCGATG,0.0908
23,CGCAGGGA,-0.115
24,CAGGCCTG,0.059
25,ATAAGCCC,-0.218

row,Sequence,PBM E-score
1,GGATACGA,-0.068
2,ATGATAAA,0.271
3,ATATACGG,0.109
4,CCCCAAAA,-0.0885
5,CTTCGTAA,-0.0866
6,CCTAATAA,-0.02
7,CATCTAGG,-0.233
8,CTGCATTC,-0.0295
9,CAACACAC,-0.145
10,AAGTCGTC,-0.132
11,GACAGAGC,-0.128
12,AACTGGGA,-0.151
13,GCTACCCA,-0.203
14,AGGGAAAA,-0.0614
15,AAAAAGGG,-0.0149
16,AGAGGGTC,-0.245
17,AGTGTAGA,-0.165
18,TACCCCTA,-0.234
19,AGCCGTTC,0.00576
